The assay concerns the target T1, tumor necrosis factor receptor-associated factor 6 (TRAF6) (mouse (endogenous in BMMs)) (UniProt P70196).
T1 sequence: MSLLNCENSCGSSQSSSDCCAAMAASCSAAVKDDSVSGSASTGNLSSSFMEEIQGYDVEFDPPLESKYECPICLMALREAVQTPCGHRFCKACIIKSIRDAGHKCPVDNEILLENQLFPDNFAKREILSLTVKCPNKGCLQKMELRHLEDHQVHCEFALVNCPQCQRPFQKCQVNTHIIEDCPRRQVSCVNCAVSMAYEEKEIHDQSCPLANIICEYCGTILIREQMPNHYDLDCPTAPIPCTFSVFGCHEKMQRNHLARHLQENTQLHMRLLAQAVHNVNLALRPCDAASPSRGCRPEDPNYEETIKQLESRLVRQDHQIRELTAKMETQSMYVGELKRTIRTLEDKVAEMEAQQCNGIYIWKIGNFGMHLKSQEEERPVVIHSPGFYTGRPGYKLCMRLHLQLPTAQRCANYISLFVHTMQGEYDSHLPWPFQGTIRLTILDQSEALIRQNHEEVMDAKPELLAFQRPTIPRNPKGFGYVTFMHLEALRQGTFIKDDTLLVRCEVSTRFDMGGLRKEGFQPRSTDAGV
Description: co-IP; total proteins from BMM (RIPA lysate) pre-cleared with control IgG and protein A/G beads; anti-TRAF6 and protein A/G beads overnight; washed 3 times with lysis buffer; WB for CYLD and ubiquitin.

Results are given in words; binding and its absence hold for the method and conditions named. Binding seen in cells or lysates may run through a third protein. Some entries that bind do so weakly or less than the wild type.

B1: cylindromatosis (CYLD) (enzyme, UniProt Q80TQ2 1-952)
chain: MSSGLWSQEKVTSPYWEERIFYLLLQECSVTDKQTQKLLKVPKGSIGQYIQDRSVGHSRVPSTKGKKNQIGLKILEQPHAVLFVDEKDVVEINEKFTELLLAITNCEERLSLFRNRLRLSKGLQVDVGSPVKVQLRSGEEKFPGVVRFRGPLLAERTVSGIFFGVELLEEGRGQGFTDGVYQGKQLFQCDEDCGVFVALDKLELIEDDDNGLESDFAGPGDTMQVEPPPLEINSRVSLKVGESTESGTVIFCDVLPGKESLGYFVGVDMDNPIGNWDGRFDGVQLCSFASVESTILLHINDIIPDSVTQERRPPKLAFMSRGVGDKGSSSHNKPKVTGSTSDPGSRNRSELFYTLNGSSVDSQQSKSKNPWYIDEVAEDPAKSLTEMSSDFGHSSPPPQPPSMNSLSSENRFHSLPFSLTKMPNTNGSMAHSPLSLSVQSVMGELNSTPVQESPPLPISSGNAHGLEVGSLAEVKENPPFYGVIRWIGQPPGLSDVLAGLELEDECAGCTDGTFRGTRYFTCALKKALFVKLKSCRPDSRFASLQPVSNQIERCNSLAFGGYLSEVVEENTPPKMEKEGLEIMIGKKKGIQGHYNSCYLDSTLFCLFAFSSALDTVLLRPKEKNDIEYYSETQELLRTEIVNPLRIYGYVCATKIMKLRKILEKVEAASGFTSEEKDPEEFLNILFHDILRVEPLLKIRSAGQKVQDCNFYQIFMEKNEKVGVPTIQQLLEWSFINSNLKFAEAPSCLIIQMPRFGKDFKLFKKIFPSLELNITDLLEDTPRQCRICGGLAMYECRECYDDPDISAGKIKQFCKTCSTQVHLHPRRLNHSYHPVSLPKDLPDWDWRHGCIPCQKMELFAVLCIETSHYVAFVKYGKDDSAWLFFDSMADRDGGQNGFNIPQVTPCPEVGEYLKMSLEDLHSLDSRRIQGCARRLLCDAYMCMYQSPTMSLYK
On to B1, for which the binding entry was “binds”.
